No constants are given. Whether binding was seen depends on the method and setting. In cells and extracts the contact can be indirect. A yes stands for co-enrichment or nearness to the bait. Other partners may have been found. Where a sequence is shown, tags or fusion partners need not be part of it.
T1: GFP-tagged LNX1p80 (Ligand of Numb protein X1, p80 isoform) (mouse) (UniProt O70263)
T1 sequence: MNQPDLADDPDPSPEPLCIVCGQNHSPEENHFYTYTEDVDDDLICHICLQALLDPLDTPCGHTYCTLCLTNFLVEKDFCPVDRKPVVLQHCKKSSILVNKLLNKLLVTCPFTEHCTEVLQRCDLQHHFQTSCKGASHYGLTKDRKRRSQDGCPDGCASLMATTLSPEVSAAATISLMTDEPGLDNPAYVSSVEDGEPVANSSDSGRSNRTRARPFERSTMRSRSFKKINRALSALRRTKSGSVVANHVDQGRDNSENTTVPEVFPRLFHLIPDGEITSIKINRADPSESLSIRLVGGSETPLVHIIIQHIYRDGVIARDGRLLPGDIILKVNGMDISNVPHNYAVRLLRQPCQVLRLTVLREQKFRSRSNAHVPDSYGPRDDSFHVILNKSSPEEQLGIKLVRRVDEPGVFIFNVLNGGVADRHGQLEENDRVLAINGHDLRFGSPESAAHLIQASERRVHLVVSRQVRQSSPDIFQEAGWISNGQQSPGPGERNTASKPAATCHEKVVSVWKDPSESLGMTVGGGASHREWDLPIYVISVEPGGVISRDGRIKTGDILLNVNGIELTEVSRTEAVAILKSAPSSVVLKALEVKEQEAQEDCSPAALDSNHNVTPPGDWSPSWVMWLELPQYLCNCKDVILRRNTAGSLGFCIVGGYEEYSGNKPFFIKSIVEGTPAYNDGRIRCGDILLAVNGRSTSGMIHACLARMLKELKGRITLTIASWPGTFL

B1: Transmembrane emp24 domain-containing protein 10, endogenous (protein, UniProt P49755 32-219)
chain: ISFHLPINSRKCLREEIHKDLLVTGAYEISDQSGGAGGLRSHLKITDSAGHILYSKEDATKGKFAFTTEDYDMFEVCFESKGTGRIPDQLVILDMKHGVEAKNYEEIAKVEKLKPLEVELRRLEDLSESIVNDFAYMKKREEEMRDTNESTNTRVLYFSIFSMFCLIGLATWQVFYLRRFFKAKKLIE
B2: Protein numb homolog, endogenous (protein, UniProt P49757 1-651)
chain: MNKLRQSFRRKKDVYVPEASRPHQWQTDEEGVRTGKCSFPVKYLGHVEVDESRGMHICEDAVKRLKAERKFFKGFFGKTGKKAVKAVLWVSADGLRVVDEKTKDLIVDQTIEKVSFCAPDRNFDRAFSYICRDGTTRRWICHCFMAVKDTGERLSHAVGCAFAACLERKQKREKECGVTATFDASRTTFTREGSFRVTTATEQAEREEIMKQMQDAKKAETDKIVVGSSVAPGNTAPSPSSPTSPTSDATTSLEMNNPHAIPRRHAPIEQLARQGSFRGFPALSQKMSPFKRQLSLRINELPSTMQRKTDFPIKNAVPEVEGEAESISSLCSQITNAFSTPEDPFSSAPMTKPVTVVAPQSPTFQANGTDSAFHVLAKPAHTALAPVAMPVRETNPWAHAPDAANKEIAATCSGTEWGQSSGAASPGLFQAGHRRTPSEADRWLEEVSKSVRAQQPQASAAPLQPVLQPPPPTAISQPASPFQGNAFLTSQPVPVGVVPALQPAFVPAQSYPVANGMPYPAPNVPVVGITPSQMVANVFGTAGHPQAAHPHQSPSLVRQQTFPHYEASSATTSPFFKPPAQHLNGSAAFNGVDDGRLASADRHTEVPTGTCPVDPFEAQWAALENKSKQRTNPSPTNPFSSDLQKTFEIEL
B3: Pleckstrin, endogenous (protein, UniProt P08567 1-350)
chain: MEPKRIREGYLVKKGSVFNTWKPMWVVLLEDGIEFYKKKSDNSPKGMIPLKGSTLTSPCQDFGKRMFVFKITTTKQQDHFFQAAFLEERDAWVRDIKKAIKCIEGGQKFARKSTRRSIRLPETIDLGALYLSMKDTEKGIKELNLEKDKKIFNHCFTGNCVIDWLVSNQSVRNRQEGLMIASSLLNEGYLQPAGDMSKSAVDGTAENPFLDNPDAFYYFPDSGFFCEENSSDDDVILKEEFRGVIIKQGCLLKQGHRRKNWKVRKFILREDPAYLHYYDPAGAEDPLGAIHLRGCVVTSVESNSNGRKSEEENLFEIITADEVHYFLQAATPKERTEWIRAIQMASRTGK
B4: ERC protein 2, endogenous (protein, UniProt O15083 1-957)
chain: MYGSARTITNLEGSPSRSPRLPRSPRLGHRRTSSGGGGGTGKTLSMENIQSLNAAYATSGPMYLSDHEGVASTTYPKGTMTLGRATNRAVYGGRVTAMGSSPNIASAGLSHTDVLSYTDQHGGLTGSSHHHHHQVPSMLRQVRDSTMLDLQAQLKELQRENDLLRKELDIKDSKLGSSMNSIKTFWSPELKKERVLRKEEAARMSVLKEQMRVSHEENQHLQLTIQALQDELRTQRDLNHLLQQESGNRGAEHFTIELTEENFRRLQAEHDRQAKELFLLRKTLEEMELRIETQKQTLNARDESIKKLLEMLQSKGLPSKSLEDDNERTRRMAEAESQVSHLEVILDQKEKENIHLREELHRRSQLQPEPAKTKALQTVIEMKDTKIASLERNIRDLEDEIQMLKANGVLNTEDREEEIKQIEVYKSHSKFMKTKIDQLKQELSKKESELLALQTKLETLSNQNSDCKQHIEVLKESLTAKEQRAAILQTEVDALRLRLEEKESFLNKKTKQLQDLTEEKGTLAGEIRDMKDMLEVKERKINVLQKKIENLQEQLRDKDKQLTNLKDRVKSLQTDSSNTDTALATLEEALSEKERIIERLKEQRERDDRERLEEIESFRKENKDLKEKVNALQAELTEKESSLIDLKEHASSLASAGLKRDSKLKSLEIAIEQKKEECSKLEAQLKKAHNIEDDSRMNPEFADQIKQLDKEASYYRDECGKAQAEVDRLLEILKEVENEKNDKDKKIAELESLTLRHMKDQNKKVANLKHNQQLEKKKNAQLLEEVRRREDSMADNSQHLQIEELMNALEKTRQELDATKARLASTQQSLAEKEAHLANLRIERRKQLEEILEMKQEALLAAISEKDANIALLELSASKKKKTQEEVMALKREKDRLVHQLKQQTQNRMKLMADNYDDDHHHYHHHHHHHHHRSPGRSQHSNHRPSPDQDDEEGIWA
B5: TRAF4, endogenous (protein, UniProt Q9BUZ4 1-470)
chain: MPGFDYKFLEKPKRRLLCPLCGKPMREPVQVSTCGHRFCDTCLQEFLSEGVFKCPEDQLPLDYAKIYPDPELEVQVLGLPIRCIHSEEGCRWSGPLRHLQGHLNTCSFNVIPCPNRCPMKLSRRDLPAHLQHDCPKRRLKCEFCGCDFSGEAYESHEGMCPQESVYCENKCGARMMRRLLAQHATSECPKRTQPCTYCTKEFVFDTIQSHQYQCPRLPVACPNQCGVGTVAREDLPGHLKDSCNTALVLCPFKDSGCKHRCPKLAMARHVEESVKPHLAMMCALVSRQRQELQELRRELEELSVGSDGVLIWKIGSYGRRLQEAKAKPNLECFSPAFYTHKYGYKLQVSAFLNGNGSGEGTHLSLYIRVLPGAFDNLLEWPFARRVTFSLLDQSDPGLAKPQHVTETFHPDPNWKNFQKPGTWRGSLDESSLGFGYPKFISHQDIRKRNYVRDDAVFIRAAVELPRKILS
B6: Numb-like protein, endogenous (protein, UniProt Q9Y6R0 1-609)
chain: MSRSAAASGGPRRPERHLPPAPCGAPGPPETCRTEPDGAGTMNKLRQSLRRRKPAYVPEASRPHQWQADEDAVRKGTCSFPVRYLGHVEVEESRGMHVCEDAVKKLKAMGRKSVKSVLWVSADGLRVVDDKTKDLLVDQTIEKVSFCAPDRNLDKAFSYICRDGTTRRWICHCFLALKDSGERLSHAVGCAFAACLERKQRREKECGVTAAFDASRTSFAREGSFRLSGGGRPAEREAPDKKKAEAAAAPTVAPGPAQPGHVSPTPATTSPGEKGEAGTPVAAGTTAAAIPRRHAPLEQLVRQGSFRGFPALSQKNSPFKRQLSLRLNELPSTLQRRTDFQVKGTVPEMEPPGAGDSDSINALCTQISSSFASAGAPAPGPPPATTGTSAWGEPSVPPAAAFQPGHKRTPSEAERWLEEVSQVAKAQQQQQQQQQQQQQQQQQQQQAASVAPVPTMPPALQPFPAPVGPFDAAPAQVAVFLPPPHMQPPFVPAYPGLGYPPMPRVPVVGITPSQMVANAFCSAAQLQPQPATLLGKAGAFPPPAIPSAPGSQARPRPNGAPWPPEPAPAPAPELDPFEAQWAALEGKATVEKPSNPFSGDLQKTFEIEL
B7: Peroxisome biogenesis factor 1, endogenous (protein, UniProt O43933 1-1283)
chain: MWGSDRLAGAGGGGAAVTVAFTNARDCFLHLPRRLVAQLHLLQNQAIEVVWSHQPAFLSWVEGRHFSDQGENVAEINRQVGQKLGLSNGGQVFLKPCSHVVSCQQVEVEPLSADDWEILELHAVSLEQHLLDQIRIVFPKAIFPVWVDQQTYIFIQIVALIPAASYGRLETDTKLLIQPKTRRAKENTFSKADAEYKKLHSYGRDQKGMMKELQTKQLQSNTVGITESNENESEIPVDSSSVASLWTMIGSIFSFQSEKKQETSWGLTEINAFKNMQSKVVPLDNIFRVCKSQPPSIYNASATSVFHKHCAIHVFPWDQEYFDVEPSFTVTYGKLVKLLSPKQQQSKTKQNVLSPEKEKQMSEPLDQKKIRSDHNEEDEKACVLQVVWNGLEELNNAIKYTKNVEVLHLGKVWIPDDLRKRLNIEMHAVVRITPVEVTPKIPRSLKLQPRENLPKDISEEDIKTVFYSWLQQSTTTMLPLVISEEEFIKLETKDGLKEFSLSIVHSWEKEKDKNIFLLSPNLLQKTTIQVLLDPMVKEENSEEIDFILPFLKLSSLGGVNSLGVSSLEHITHSLLGRPLSRQLMSLVAGLRNGALLLTGGKGSGKSTLAKAICKEAFDKLDAHVERVDCKALRGKRLENIQKTLEVAFSEAVWMQPSVVLLDDLDLIAGLPAVPEHEHSPDAVQSQRLAHALNDMIKEFISMGSLVALIATSQSQQSLHPLLVSAQGVHIFQCVQHIQPPNQEQRCEILCNVIKNKLDCDINKFTDLDLQHVAKETGGFVARDFTVLVDRAIHSRLSRQSISTREKLVLTTLDFQKALRGFLPASLRSVNLHKPRDLGWDKIGGLHEVRQILMDTIQLPAKYPELFANLPIRQRTGILLYGPPGTGKTLLAGVIARESRMNFISVKGPELLSKYIGASEQAVRDIFIRAQAAKPCILFFDEFESIAPRRGHDNTGVTDRVVNQLLTQLDGVEGLQGVYVLAATSRPDLIDPALLRPGRLDKCVYCPPPDQVSRLEILNVLSDSLPLADDVDLQHVASVTDSFTGADLKALLYNAQLEALHGMLLSSGLQDGSSSSDSDLSLSSMVFLNHSSGSDDSAGDGECGLDQSLVSLEMSEILPDESKFNMYRLYFGSSYESELGNGTSSDLSSQCLSAPSSMTQDLPGVPGKDQLFSQPPVLRTASQEGCQELTQEQRDQLRADISIIKGRYRSQSGEDESMNQPGPIKTRLAISQSHLMTALGHTRPSISEDDWKNFAELYESFQNPKRRKNQSGTMFRPGQKVTLA
B8: Dual specificity protein phosphatase 14, endogenous (protein, UniProt O95147 1-198)
chain: MSSRGHSTLPRTLMAPRMISEGDIGGIAQITSSLFLGRGSVASNRHLLQARGITCIVNATIEIPNFNWPQFEYVKVPLADMPHAPIGLYFDTVADKIHSVSRKHGATLVHCAAGVSRSATLCIAYLMKFHNVCLLEAYNWVKARRPVIRPNVGFWRQLIDYERQLFGKSTVKMVQTPYGIVPDVYEKESRHLMPYWGI

target: T1, GFP-tagged LNX1p80 (Ligand of Numb protein X1, p80 isoform) (mouse); experiment: affinity purification with mass spectrometry; GFP-LNX1p80 complexes purified on magnetic GFP-Trap beads from stably transfected HEK 293 cells; gel slices, nano-LC MS/MS; proteins also found with GFP alone removed; Mascot protein score cut-off 70

| binding | Binder |
| --- | --- |
| binds | B1 |
| binds | B2 |
| binds | B3 |
| binds | B4 |
| binds | B5 |
| binds | B6 |
| binds | B7 |
| binds | B8 |

Reference: publication PMC5679597
